Laboratory results reported in PMC4872217, “Structural and functional insights into the E3 ligase, RNF126” (Scientific Reports, 2016).
Results are given in words; binding and its absence hold for the method and conditions named.

By UniProt entry, the sequences of proteins in these tests, tags left out. Residues count along the entry.
UniProt P46379, residues 17-101: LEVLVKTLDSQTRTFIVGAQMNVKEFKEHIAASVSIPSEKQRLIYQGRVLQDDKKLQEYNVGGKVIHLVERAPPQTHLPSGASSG

Molecular target: BAG6_UBL (UBL domain of BAG6, residues 17-101) (UniProt P46379)
Test: ITC; 500 μM RNF126_NZF (wild-type or mutant) injected into 50 μM BAG6_UBL in the cell; 25 °C; 10 mM potassium phosphate pH 6.0, 100 mM NaCl, 250 μM TCEP; both purified

B1: RNF126_NZF H14A mutant (domain or fragment, human, UniProt Q9BV68 1-40, looked up)
chain: MAEASPHPGRYFCACCSVEIVPRLPDYICPRCESGFIEEL
notes: RNF126, human, residues 1-40, with H14A; Made by PCR mutagenesis on pET28-GFP-RNF126 (1-40); in the native PAGE the mutants were GFP tagged; also called His14/Ala; source: E. coli BL21 (DE3), purified
For B1, the binding was “no binding (tested: >50 μM)”.
